Test results taken from patent US20240366778A1 (CSPC MEGALITH BIOPHARMARCEUTICAL, published 2024).
Residue numbers refer to the chain shown, from its start. Results are given in words; binding and its absence hold for the method and conditions named. Some entries that bind do so weakly or less than the wild type. For part of these data: Where a sequence is shown, tags or fusion partners need not be part of it. Values belong to the binder of their own block, whether it stands above or below them.

Tests used:
[1] = target: Cynomolgus Nectin-4 Protein, His Tag (cynomolgus); test: ELISA
[2] = target: T1, Recombinant Rat Nectin-4 His-tag Protein, CF (rat) (UniProt D3ZET1); test: ELISA
T1 sequence: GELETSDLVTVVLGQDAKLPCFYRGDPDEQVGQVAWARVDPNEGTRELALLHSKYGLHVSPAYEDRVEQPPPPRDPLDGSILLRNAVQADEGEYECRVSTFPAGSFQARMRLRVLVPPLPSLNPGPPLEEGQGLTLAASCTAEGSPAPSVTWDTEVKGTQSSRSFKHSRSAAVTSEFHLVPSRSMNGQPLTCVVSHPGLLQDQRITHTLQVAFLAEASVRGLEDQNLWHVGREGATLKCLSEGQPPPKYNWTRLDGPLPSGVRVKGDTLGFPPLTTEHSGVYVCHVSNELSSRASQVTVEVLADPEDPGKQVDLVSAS

binding [1]: binds
binding [2]: binds
B1: humanized antibody SWY2001-Ab3 (antibody, human IgG1, kappa, V domains shown)
VH: QVQLVQSGAEVKKPGASVKVSCKASGYTFTSYYIHWVRQAPGQRLEWMGWIYPGNVNTKYNENFRDRVTITRDTSASTAYMELSSLRSEDTAVYYCARGIYYFDYWGQGTLVTVSS
VL: AIQMTQSPSSLSASVGDRVTITCKASQSVNNDVAWYQQKPGKAPKLLIYYASNRDTGVPSRFSGSGSGTDFTLTISSLQPEDFATYFCHQDYSSPFTFGGGTKVEIKR
notes: Full-length IgG1, kappa

binding [1]: binds
binding [2]: binds
B2: humanized antibody SWY2001-Ab2 (antibody, human IgG1, kappa, V domains shown)
VH: B1 VH
VL: B1 VL with P80A, F83L, T85V
notes: Full-length IgG1, kappa

binding [1]: binds
binding [2]: binds
B3: humanized antibody SWY2001-Ab1 (antibody, human IgG1, kappa, V domains shown)
VH: B1 VH
VL: B1 VL with A1I, S9K, S10F, K42Q, A43S, S60D
